PubChem BioAssay AID1259261, Sanger Institute – 2017
Here is a random part of 794 reagents. Over the whole deposit, 10 (1.3%) got an active call. 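Calls reflect knock-down alone without drug; synergy scores with BYL719, cetuximab or trametinib do not affect calls.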 Viability is capped at 1. Not all columns of the deposit are shown. Not given: the amount of reagent, the time to read-out.

Aim: 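Kinase knock-downs that kill colorectal cancer cells or boost targeted drugs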 (primary screen)
Cell system: HCC2998 human colorectal cancer cells
Knock-down reagent: siRNA pool against human genes
Conditions: anchor drugs BYL719 1 µM, cetuximab 5 µg/ml or trametinib 10 nM, each compared with DMSO vehicle
Measurement: 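Viability as fraction of non-targeting control plus robust z-score without drug; synergy scores compare knock-down plus drug against each alone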
Scale: viability z-score, knock-down alone: higher = more viable cells than controls; viability fraction, knock-down alone: higher = more viable cells; synergy score with BYL719: higher = stronger combined killing with BYL719
Call rule: 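a knock-down is called essential if its robust z-score without drug is under -3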
Calls: active = essential; inactive = no change

Gene | viability z-score, knock-down alone | viability fraction, knock-down alone | synergy score with BYL719 | Outcome
MYLK3 | 0.896 | 0.961 | 0.0385 | inactive
MAPK11 | -0.125 | 0.833 | 0.0253 | inactive
MAPK6 | 0.671 | 0.933 | -0.047 | inactive
MST1R | 1.13 | 0.99 | -0.043 | inactive
ERN1 | 0.285 | 0.885 | 0.0436 | inactive
TNIK | 0.417 | 0.901 | -0.0151 | inactive
CAD | 1.21 | 1 | -0.109 | inactive
PRKAR1A | -0.388 | 0.8 | 0.0275 | inactive
TESK1 | -0.731 | 0.757 | -0.2 | inactive
CAMK1D | 1.21 | 1 | 0.0622 | inactive
STK11 | -1.2 | 0.698 | 0.0295 | inactive
CDKN2B | 0.5 | 0.912 | -0.139 | inactive
PRKG1 | 0.189 | 0.873 | -0.00544 | inactive
ROR1 | 0.375 | 0.896 | 0.0872 | inactive
WHR1 | 1.21 | 1 | -0.0619 | inactive
TAF1L | -1.82 | 0.62 | -0.0829 | inactive
MAP3K21 | 0.29 | 0.885 | 0.0151 | inactive
INSRR | -1.92 | 0.609 | -0.0458 | inactive
MAP3K13 | -0.0993 | 0.836 | -0.0843 | inactive
CDK20 | 0.552 | 0.918 | -0.0107 | inactive

An excerpt from above, showing only “viability fraction, knock-down alone”.
TAF1L: 0.62
MAP3K21: 0.885
